Measured values reported in patent US20240309104A1 (PROMETHEUS BIOSCIENCES, published 2024).
No constants are given. Whether binding was seen depends on the method and setting. Some binding calls cover weakened binding; strength is not graded here.

Molecular target: T1, DR3 receptor on human TF-1 cells (human) (UniProt Q93038)
T1 sequence (looked up): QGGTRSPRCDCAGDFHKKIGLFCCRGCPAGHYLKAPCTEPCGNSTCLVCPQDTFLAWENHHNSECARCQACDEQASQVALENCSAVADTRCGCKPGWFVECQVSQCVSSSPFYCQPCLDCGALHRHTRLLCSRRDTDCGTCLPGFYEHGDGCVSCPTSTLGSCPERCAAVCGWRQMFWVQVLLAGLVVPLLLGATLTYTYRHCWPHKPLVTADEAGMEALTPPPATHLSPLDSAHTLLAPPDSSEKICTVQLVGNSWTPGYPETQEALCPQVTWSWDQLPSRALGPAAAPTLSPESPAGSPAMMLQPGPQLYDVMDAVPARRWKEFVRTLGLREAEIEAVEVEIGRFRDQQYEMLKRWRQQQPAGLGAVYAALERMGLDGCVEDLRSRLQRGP
Assay: TF-1 cell caspase activation assay

B1: recombinant cynomolgus monkey TL1A protein (ligand)
chain: LKGQEFAPSHQQVYAPLRADGDKPRAHLTVVRQTPTQHLKNQFPALHWEHELGLAFTKNRMNYTNKFLLIPESGDYFVYSQVTFRGMTSECSEIRQAGRPNKPDSITVVITKVTDSYPEPTQLLMGTKSVCEVGSNWFQPIYLGAMFSLQEGDKLMVNVSDISLVDYTKEDKTFFGAFLL
binding: binds
